We go through 28 targets from the supplement of paper PMC12819154, “High-throughput peptide-centric local stability assay extends protein–ligand identification to membrane proteins, tissues and bacteria” (Nature Structural & Molecular Biology, 2025).

Sequences of proteins named here, by UniProt entry; tags and fusion partners are left off. A change or cut given only in a name is not applied to a line headed by its entry.
UniProt Q96BS2: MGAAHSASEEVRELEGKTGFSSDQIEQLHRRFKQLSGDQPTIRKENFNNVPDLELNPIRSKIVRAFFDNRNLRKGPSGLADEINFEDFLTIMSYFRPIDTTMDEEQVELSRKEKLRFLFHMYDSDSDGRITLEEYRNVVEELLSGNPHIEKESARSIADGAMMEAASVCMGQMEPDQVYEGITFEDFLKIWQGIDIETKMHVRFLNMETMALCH
UniProt Q96DU7: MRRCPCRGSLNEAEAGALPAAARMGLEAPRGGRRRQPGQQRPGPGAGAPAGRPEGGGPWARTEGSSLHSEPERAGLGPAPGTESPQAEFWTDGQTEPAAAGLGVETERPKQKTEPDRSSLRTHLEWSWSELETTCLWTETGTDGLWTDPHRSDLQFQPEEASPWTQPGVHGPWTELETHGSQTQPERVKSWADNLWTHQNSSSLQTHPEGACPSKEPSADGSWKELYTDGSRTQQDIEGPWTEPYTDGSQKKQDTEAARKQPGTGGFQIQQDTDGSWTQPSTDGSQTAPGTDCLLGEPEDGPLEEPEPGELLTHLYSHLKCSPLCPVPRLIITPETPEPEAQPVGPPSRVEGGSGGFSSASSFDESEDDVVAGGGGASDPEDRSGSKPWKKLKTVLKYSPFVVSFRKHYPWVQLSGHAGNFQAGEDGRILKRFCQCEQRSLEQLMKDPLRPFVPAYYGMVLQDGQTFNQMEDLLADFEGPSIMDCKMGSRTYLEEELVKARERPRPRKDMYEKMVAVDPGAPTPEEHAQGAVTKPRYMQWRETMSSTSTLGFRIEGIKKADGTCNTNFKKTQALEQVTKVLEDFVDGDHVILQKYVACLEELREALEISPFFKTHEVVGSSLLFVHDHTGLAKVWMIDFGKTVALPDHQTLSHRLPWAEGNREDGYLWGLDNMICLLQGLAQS
UniProt Q96E39: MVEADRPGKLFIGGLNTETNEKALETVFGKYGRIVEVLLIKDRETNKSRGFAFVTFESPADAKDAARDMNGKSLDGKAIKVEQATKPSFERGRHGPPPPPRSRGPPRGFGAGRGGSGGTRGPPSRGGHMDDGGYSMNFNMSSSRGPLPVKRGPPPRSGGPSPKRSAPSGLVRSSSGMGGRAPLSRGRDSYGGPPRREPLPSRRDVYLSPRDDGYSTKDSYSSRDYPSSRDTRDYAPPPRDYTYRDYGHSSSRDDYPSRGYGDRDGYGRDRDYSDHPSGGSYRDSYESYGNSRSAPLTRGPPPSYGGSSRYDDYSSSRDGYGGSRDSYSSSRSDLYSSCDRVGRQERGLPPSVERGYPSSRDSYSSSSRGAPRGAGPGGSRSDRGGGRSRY
UniProt Q92888: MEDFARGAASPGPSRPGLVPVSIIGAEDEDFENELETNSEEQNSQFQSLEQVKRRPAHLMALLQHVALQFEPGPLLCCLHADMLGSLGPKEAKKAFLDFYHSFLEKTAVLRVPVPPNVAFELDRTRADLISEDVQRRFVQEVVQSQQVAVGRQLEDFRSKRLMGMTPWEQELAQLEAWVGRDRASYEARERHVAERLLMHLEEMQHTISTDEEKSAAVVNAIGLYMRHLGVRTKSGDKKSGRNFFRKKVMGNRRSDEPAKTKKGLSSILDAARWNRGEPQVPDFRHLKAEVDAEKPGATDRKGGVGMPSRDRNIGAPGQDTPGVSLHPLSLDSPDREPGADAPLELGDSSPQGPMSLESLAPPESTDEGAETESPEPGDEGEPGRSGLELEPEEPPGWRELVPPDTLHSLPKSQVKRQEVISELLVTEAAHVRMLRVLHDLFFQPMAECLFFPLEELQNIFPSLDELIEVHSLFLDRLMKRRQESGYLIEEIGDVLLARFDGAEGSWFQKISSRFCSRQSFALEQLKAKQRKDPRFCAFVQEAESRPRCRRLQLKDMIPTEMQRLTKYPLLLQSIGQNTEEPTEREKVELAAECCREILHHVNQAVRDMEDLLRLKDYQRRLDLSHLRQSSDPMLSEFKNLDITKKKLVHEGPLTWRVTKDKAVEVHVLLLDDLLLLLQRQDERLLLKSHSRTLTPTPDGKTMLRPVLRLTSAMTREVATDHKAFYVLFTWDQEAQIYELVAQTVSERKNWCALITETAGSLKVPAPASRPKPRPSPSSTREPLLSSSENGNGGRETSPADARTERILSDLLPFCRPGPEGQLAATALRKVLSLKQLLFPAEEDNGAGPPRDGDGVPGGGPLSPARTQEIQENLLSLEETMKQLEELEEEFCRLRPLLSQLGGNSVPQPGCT
UniProt Q92830, whole entry, looked up: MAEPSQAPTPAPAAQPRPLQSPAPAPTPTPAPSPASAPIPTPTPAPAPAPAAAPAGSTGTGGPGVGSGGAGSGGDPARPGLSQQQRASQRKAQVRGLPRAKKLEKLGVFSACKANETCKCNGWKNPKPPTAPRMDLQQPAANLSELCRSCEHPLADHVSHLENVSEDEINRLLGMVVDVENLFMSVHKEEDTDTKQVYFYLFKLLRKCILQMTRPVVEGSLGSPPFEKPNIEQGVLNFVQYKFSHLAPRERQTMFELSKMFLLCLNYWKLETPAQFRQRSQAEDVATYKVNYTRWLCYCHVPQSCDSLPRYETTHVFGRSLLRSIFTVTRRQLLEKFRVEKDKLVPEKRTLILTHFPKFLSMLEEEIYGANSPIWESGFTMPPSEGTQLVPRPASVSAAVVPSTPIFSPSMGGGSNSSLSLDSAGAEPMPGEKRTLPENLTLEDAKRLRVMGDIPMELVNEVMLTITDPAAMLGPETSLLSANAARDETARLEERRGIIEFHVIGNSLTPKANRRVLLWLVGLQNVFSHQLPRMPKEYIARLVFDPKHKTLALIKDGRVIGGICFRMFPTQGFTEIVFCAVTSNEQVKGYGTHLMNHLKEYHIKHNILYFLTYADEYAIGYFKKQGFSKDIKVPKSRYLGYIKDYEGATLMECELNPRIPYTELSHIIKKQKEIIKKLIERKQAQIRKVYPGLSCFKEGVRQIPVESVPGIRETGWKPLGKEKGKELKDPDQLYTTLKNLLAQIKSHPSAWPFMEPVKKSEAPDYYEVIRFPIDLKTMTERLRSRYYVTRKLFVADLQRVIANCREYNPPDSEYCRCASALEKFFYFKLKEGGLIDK
UniProt Q92905, whole entry, looked up: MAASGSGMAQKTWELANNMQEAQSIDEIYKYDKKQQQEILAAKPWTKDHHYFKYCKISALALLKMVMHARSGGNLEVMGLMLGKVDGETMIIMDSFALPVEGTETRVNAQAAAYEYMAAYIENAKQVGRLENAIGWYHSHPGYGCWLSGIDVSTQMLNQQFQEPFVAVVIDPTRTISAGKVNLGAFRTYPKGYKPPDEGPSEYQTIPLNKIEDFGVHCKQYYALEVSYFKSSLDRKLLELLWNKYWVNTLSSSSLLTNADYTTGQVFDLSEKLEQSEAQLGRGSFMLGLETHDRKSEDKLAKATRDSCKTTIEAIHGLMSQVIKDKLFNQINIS
UniProt Q96C34: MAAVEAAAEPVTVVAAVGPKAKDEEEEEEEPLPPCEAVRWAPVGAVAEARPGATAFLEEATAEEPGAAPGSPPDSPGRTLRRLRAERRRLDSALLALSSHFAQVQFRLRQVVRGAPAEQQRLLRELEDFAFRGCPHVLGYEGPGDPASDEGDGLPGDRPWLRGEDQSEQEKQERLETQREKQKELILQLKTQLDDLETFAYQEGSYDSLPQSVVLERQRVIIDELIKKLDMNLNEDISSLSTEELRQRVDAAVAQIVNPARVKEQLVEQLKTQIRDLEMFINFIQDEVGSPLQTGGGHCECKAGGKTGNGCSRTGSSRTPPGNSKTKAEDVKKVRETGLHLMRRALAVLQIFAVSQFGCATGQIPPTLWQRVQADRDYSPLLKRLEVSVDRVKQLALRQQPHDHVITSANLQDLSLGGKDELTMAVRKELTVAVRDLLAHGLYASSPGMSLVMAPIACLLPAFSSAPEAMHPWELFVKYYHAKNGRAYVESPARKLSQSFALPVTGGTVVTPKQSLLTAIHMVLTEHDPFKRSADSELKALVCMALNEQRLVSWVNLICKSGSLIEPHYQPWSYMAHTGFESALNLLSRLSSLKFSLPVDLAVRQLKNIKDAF
UniProt Q92997: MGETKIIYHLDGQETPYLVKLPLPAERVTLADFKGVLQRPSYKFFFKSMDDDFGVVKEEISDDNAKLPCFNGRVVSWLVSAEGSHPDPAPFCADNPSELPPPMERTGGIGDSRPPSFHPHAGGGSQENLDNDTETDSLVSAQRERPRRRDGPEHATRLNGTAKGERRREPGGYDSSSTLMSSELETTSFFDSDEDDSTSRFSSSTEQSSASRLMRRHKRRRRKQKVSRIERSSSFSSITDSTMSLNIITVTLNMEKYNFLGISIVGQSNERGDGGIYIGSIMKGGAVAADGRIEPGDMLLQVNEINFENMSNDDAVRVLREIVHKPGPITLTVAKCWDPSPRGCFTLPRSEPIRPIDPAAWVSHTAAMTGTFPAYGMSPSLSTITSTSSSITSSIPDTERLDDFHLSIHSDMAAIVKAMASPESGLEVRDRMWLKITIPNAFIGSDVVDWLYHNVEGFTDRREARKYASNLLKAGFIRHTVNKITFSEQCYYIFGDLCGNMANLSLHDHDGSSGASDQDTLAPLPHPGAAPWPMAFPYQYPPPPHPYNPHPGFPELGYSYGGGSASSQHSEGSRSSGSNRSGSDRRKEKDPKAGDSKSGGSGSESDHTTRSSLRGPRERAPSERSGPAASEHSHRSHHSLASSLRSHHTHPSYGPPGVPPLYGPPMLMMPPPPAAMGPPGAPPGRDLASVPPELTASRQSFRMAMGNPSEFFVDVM
UniProt Q96B26, whole entry: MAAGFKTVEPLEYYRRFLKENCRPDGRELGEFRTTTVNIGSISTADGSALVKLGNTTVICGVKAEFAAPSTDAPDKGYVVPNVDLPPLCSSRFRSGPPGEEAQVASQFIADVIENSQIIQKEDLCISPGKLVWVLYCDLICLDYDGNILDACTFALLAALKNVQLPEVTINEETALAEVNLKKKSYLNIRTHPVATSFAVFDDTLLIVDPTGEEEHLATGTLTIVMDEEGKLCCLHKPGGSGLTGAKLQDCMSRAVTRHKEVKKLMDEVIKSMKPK
UniProt Q96DT7: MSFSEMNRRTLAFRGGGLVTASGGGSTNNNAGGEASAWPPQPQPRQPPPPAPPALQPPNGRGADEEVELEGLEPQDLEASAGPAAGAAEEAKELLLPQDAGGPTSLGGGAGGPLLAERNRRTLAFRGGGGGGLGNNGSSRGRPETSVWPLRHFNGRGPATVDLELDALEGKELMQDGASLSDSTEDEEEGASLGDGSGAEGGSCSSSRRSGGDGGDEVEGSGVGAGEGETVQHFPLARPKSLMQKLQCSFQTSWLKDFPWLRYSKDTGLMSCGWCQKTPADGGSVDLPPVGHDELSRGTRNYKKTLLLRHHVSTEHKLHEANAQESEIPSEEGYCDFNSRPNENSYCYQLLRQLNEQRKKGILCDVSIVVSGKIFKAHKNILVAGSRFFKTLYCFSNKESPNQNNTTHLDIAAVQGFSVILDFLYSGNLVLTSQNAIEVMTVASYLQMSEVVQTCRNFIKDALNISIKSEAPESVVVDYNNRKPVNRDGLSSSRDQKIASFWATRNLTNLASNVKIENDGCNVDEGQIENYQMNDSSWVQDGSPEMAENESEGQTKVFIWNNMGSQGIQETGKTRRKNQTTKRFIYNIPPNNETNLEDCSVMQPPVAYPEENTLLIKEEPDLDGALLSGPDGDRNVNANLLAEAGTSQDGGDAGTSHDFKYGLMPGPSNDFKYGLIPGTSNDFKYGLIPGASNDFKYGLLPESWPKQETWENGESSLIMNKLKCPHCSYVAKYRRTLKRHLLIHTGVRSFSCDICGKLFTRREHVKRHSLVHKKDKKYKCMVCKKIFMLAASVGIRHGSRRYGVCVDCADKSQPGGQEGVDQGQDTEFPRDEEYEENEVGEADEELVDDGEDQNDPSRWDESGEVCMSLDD
UniProt Q96AE4: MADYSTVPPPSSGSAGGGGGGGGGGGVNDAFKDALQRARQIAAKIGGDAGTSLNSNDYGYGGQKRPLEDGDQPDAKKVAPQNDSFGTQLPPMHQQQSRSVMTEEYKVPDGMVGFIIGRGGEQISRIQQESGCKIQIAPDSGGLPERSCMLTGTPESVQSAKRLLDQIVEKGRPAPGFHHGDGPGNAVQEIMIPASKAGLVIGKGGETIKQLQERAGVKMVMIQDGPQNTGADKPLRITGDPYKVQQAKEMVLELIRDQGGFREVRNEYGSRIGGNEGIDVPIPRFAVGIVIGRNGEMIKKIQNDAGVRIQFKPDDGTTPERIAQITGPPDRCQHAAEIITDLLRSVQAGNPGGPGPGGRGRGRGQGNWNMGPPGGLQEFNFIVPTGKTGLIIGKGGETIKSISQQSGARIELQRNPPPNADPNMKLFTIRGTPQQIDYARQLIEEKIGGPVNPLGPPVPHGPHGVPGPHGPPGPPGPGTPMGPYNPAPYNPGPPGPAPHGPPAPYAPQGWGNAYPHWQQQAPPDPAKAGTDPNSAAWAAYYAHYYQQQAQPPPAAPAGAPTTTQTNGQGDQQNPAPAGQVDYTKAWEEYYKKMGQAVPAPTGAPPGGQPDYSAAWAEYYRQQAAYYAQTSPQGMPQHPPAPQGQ

The list shows a part of the results. Most entries show no effect beyond the scatter of the controls.

Compound in the assay: Cc1nc(Nc2ncc(C(=O)Nc3c(C)cccc3Cl)s2)cc(N2CCN(CCO)CC2)n1 [dasatinib]
Put plainly: log2 fold change of tryptic peptide abundance, ligand vs vehicle (limited proteolysis) (log2 ratio); higher = more trypsin-susceptible (destabilized). The conditions noted are these: ligand concentration: 5 uM; sample: K562 cleared lysate.
As for “MRPL24 (peptide sequence: LVDPMDRKPTEIEWR, peptide start residue: 122) (UniProt Q96A35)”, the log2 fold change is -0.228. To “RPL3L (peptide sequence: KVACIGAWHPAR, peptide start residue: 250) (UniProt Q92901)” belongs -0.0463.

As to “TESC (peptide sequence: ITLEEYR, peptide start residue: 130) (UniProt Q96BS2)”, the log2 fold change came to 0.139.

“ZNF428 (peptide sequence: ALGEEEEEPPR, peptide start residue: 130) (UniProt Q96B54)”: the log2 fold change was -0.036.

As for “EME1 (peptide sequence: QPEASIGSMVSR, peptide start residue: 394) (UniProt Q96AY2)”, the log2 fold change turned out to be 0.316.

Take “MTFMT (peptide sequence: FPYGILNVHPSCLPR, peptide start residue: 138) (UniProt Q96DP5)”: the log2 fold change worked out at 0.555. Turning to “CMBL (peptide sequence: YLKQQCHAQK, peptide start residue: 116) (UniProt Q96DG6)”, the log2 fold change is 0.41. Turning to “TTC17 (peptide sequence: ILELPYSIHAFQHLR, peptide start residue: 163) (UniProt Q96AE7)”, the log2 fold change is -0.377. To “UniProt Q96DN5 (peptide sequence: VKEMHLQDAAR, peptide start residue: 767)” belongs -0.314; to “RAD50 (peptide sequence: KQMEKDNSELEEK, peptide start residue: 280) (UniProt Q92878)”, 1.29. With “REPS1 (peptide sequence: GSVSHDTVQPR, peptide start residue: 142) (UniProt Q96D71)” the figure was 0.2. With “ITPKC (peptide sequence: KQDTEAAR, peptide start residue: 252) (UniProt Q96DU7)” the figure was -0.26; with “RBMXL1 (peptide sequence: AIKVEQATKPSFER, peptide start residue: 78) (UniProt Q96E39)”, 0.2. Turning to “BRF1 (peptide sequence: ECISSQSSDPK, peptide start residue: 429) (UniProt Q92994)”, the log2 fold change is -0.359.

Turning to “UniProt Q92888 (peptide sequence: QEVISELLVTEAAHVR, peptide start residue: 418)”, the log2 fold change was determined as 0.286. “KAT2A (peptide sequence: VYPGLSCFK, peptide start residue: 684) (UniProt Q92830)”: the log2 fold change was -0.428. With “COPS5 (peptide sequence: TTIEAIHGLMSQVIKDK, peptide start residue: 310) (UniProt Q92905)” the figure was -0.203; with “RUNDC1 (peptide sequence: WAPVGAVAEAR, peptide start residue: 40) (UniProt Q96C34)”, -0.276. With “MYST3 (peptide sequence: SVILECLYHQNDK, peptide start residue: 697) (UniProt Q92794)” the figure was -0.855. With “UniProt Q96EH5 (peptide sequence: QNRPIPQWIQMKPGSK, peptide start residue: 19)” the figure was 0.293; with “DVL3 (peptide sequence: SGPAASEHSHR, peptide start residue: 625) (UniProt Q92997)”, -0.298; with “RAD51AP1 (peptide sequence: QDKPKPNLNNLR, peptide start residue: 45) (UniProt Q96B01)”, -0.482. Turning to “EXOSC8 (peptide sequence: LGNTTVICGVK, peptide start residue: 53) (UniProt Q96B26)”, the log2 fold change is 0.289. To “SAAL1 (peptide sequence: VGEVVDKLFDLDEK, peptide start residue: 203) (UniProt Q96ER3)” belongs 0.0935; to “UniProt Q96A57 (peptide sequence: TNLATGIPSSK, peptide start residue: 6)”, -0.00854. To “RPGR (peptide sequence: LAEIAGMKDLRER, peptide start residue: 649) (UniProt Q92834)” belongs 0.214; to “ZBTB10 (peptide sequence: GGGGGGLGNNGSSR, peptide start residue: 127) (UniProt Q96DT7)”, 0.555; to “FUBP1 (peptide sequence: IGGDAGTSLNSNDYGYGGQK, peptide start residue: 45) (UniProt Q96AE4)”, 0.248.
